Test results taken from the supplement of paper PMC4604168 (melanoma cell lines).
Some of the results follow. Repeats are few or missing, and single values can be far off.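 Cells were imaged in 1,536-well plates, and nuclei stained with an antibody against cleaved PARP were counted against all DNA-stained nuclei to give the apoptosis fraction. Screening doses were chosen to leave most cells alive, and resting and induced cleaved-PARP levels differ strongly between cell lines.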

Experiments:
Test in all cases: cleaved PARP positive nuclei fraction relative to DMSO control; melanoma cells; higher = more apoptosis
Details in all cases: library dose: low library concentration; 72 h
[1] = system: MZ2-MEL
[2] = system: MeWo
[3] = system: RPMI7951
[4] = system: RVH-421
[5] = system: SkMel28
[6] = system: SkMel30
[7] = system: SkMel5
[8] = system: UACC257
[9] = system: UACC62
[10] = system: WM115
[11] = system: WM1716
[12] = system: WM1745
[13] = system: WM3526
[14] = system: WM3619
[15] = system: WM451Lu
[16] = system: SkMel2

| Structure (SMILES) | cleaved PARP positive nuclei fraction [1] | cleaved PARP positive nuclei fraction [2] | cleaved PARP positive nuclei fraction [3] | cleaved PARP positive nuclei fraction [4] | cleaved PARP positive nuclei fraction [5] | cleaved PARP positive nuclei fraction [6] | cleaved PARP positive nuclei fraction [7] | cleaved PARP positive nuclei fraction [8] | cleaved PARP positive nuclei fraction [9] | cleaved PARP positive nuclei fraction [10] | cleaved PARP positive nuclei fraction [11] | cleaved PARP positive nuclei fraction [12] | cleaved PARP positive nuclei fraction [13] | cleaved PARP positive nuclei fraction [14] | cleaved PARP positive nuclei fraction [15] | cleaved PARP positive nuclei fraction [16] |
| --- | --- | --- | --- | --- | --- | --- | --- | --- | --- | --- | --- | --- | --- | --- | --- | --- |
| Cn1cncc1[C@@](N)(c1ccc(Cl)cc1)c1ccc2c(c1)c(-c1cccc(Cl)c1)cc(=O)n2C [tipifarnib] + Cn1cc(/C=C2\C(=O)Nc3cccnc32)c2ccccc21 [GW441756] (first compound 0.01 µM, partner dose 0.4 µM) | 109% | 54.6% | 83.2% | 57.7% | 144% | 45.2% | 18.6% | 296% | 38.4% | 184% | 180% | 111% | 70% | 184% | 198% | – |
| C=CCn1c(=O)c2cnc(Nc3ccc(N4CCN(C)CC4)cc3)nc2n1-c1cccc(C(C)(C)O)n1 + CN(NC(=O)CC(=O)NN(C)C(=S)c1ccccc1)C(=S)c1ccccc1 [STA4783] (first compound 0.02 µM, partner dose 0.006 µM) | – | 41.5% | 152% | 132% | 39.1% | 56.3% | 228% | 75.3% | 165% | 133% | 138% | 245% | 59.7% | 158% | 120% | 52.9% |
| Nc1cccc2c1CN(C1CCC(=O)NC1=O)C2=O (stereo not drawn) [lenalidomide] + COC(=O)c1sccc1S(=O)(=O)Nc1ccc(Nc2ccccc2)cc1OC [GSK0660] (first compound 1 µM, partner dose 1 µM) | 178% | 45.8% | 108% | 94.3% | 81.7% | 7.43% | 70.4% | 95.3% | 265% | 199% | 72.5% | 93.4% | 29.7% | 55.3% | 31.3% | – |
| CC1(C)NC(=O)N(c2ccc([N+](=O)[O-])c(C(F)(F)F)c2)C1=O [nilutamide] + O=c1cc(-c2cccc3c2Sc2ccccc2S3)oc(N2CCOCC2)c1 [KU55933] (first compound 1 µM, partner dose 1 µM) | 175% | 68.4% | 52.9% | 60.2% | 34.3% | 29% | 27.6% | 59.2% | 139% | 43.1% | 134% | 97% | 56.8% | 96.8% | 38.8% | – |
| C[C@@H]1CCN(C(=O)CC#N)C[C@@H]1N(C)c1ncnc2[nH]ccc12 + c1cc(-c2cnn3cc(-c4ccc(OCCN5CCCCC5)cc4)cnc23)ccn1 [Dorsomorphin] (first compound 1 µM, partner dose 0.4 µM) | 85.9% | 17.7% | 68.7% | 64.2% | 94.4% | 23.3% | 58.9% | 142% | 61% | 87% | 83.3% | 127% | 67.8% | 63.2% | 81.3% | – |
| CC1(C)NC(=O)N(c2ccc([N+](=O)[O-])c(C(F)(F)F)c2)C1=O [nilutamide] + CCN(CC)CCCCNc1ncc2cc(-c3cc(OC)cc(OC)c3)c(NC(=O)NC(C)(C)C)nc2n1 [PD173074] (first compound 1 µM, partner dose 0.1 µM) | 109% | 48.1% | 37.8% | 69.2% | 97.3% | 122% | 52.4% | 19.9% | 86.9% | 72.1% | 71.1% | 88.5% | 118% | 67.7% | 50.8% | – |
| C=CCNC1=C2C[C@@H](C)C[C@H](OC)[C@H](O)[C@@H](C)/C=C(\C)[C@H](OC(N)=O)[C@@H](OC)/C=C\C=C(/C)C(=O)NC(=CC1=O)C2=O [Tanespimycin] + O=C(Nc1cccc(Cl)c1)Nc1ncc(CCNc2ncnc3ccsc23)s1 [SNS314] (first compound 0.002 µM, partner dose 0.0008 µM) | – | 216% | 119% | 42.8% | 39.8% | 70.7% | 134% | 299% | 133% | 305% | 54% | 97.9% | 61.8% | 103% | 124% | 132% |
| Clc1ccc(Nc2nnc(Cc3ccncc3)c3ccccc23)cc1 [vatalanib] + COc1cc(Nc2ncc(F)c(Nc3ccc4c(n3)NC(=O)C(C)(C)O4)n2)cc(OC)c1OC [Tamatinib] (first compound 2 µM, partner dose 0.4 µM) | – | 136% | 147% | 37.1% | 31.4% | 99.9% | 66.7% | 76.7% | 196% | 140% | 135% | 141% | 159% | 109% | 98.7% | 48.4% |
| O=C(Nc1cccc(Cl)c1)Nc1ncc(CCNc2ncnc3ccsc23)s1 + CCc1ccc(CCOc2ccc(CC3SC(=O)NC3=O)cc2)nc1 [pioglitazone] (first compound 0.0008 µM, partner dose 2 µM) | 144% | 177% | 112% | 165% | 104% | 31% | 74.4% | 70.3% | 40.4% | 220% | 67.6% | 108% | 267% | 75.6% | 361% | – |
| O=C(CCCCCCC(=O)Nc1ccccc1)NO [vorinostat] + Cc1ccc(NC(=O)c2cccc(N(C)C)c2)cc1NC(=O)c1ccc(O)cc1 [ZM336372] (first compound 0.08 µM, partner dose 2 µM) | – | 109% | 126% | 103% | 150% | 65.2% | 703% | 51.3% | 89.4% | 140% | 74.5% | 98.9% | 71% | 103% | 124% | 36.3% |
| Cn1nnc2c(C(N)=O)ncn2c1=O [temozolomide] + COc1ccc2c(c1)CCC1C2CCC2(C)C(NCCCCCCN3C(=O)C=CC3=O)CCC12 [U73122] (first compound 2 µM, partner dose 0.4 µM) | 63.7% | 130% | 99.8% | 48.4% | 92.7% | 18.1% | 49.5% | 132% | 93.5% | 204% | 192% | 126% | 37.7% | 103% | 60.4% | – |
| CO[C@@H]1[C@H](N(C)C(=O)c2ccccc2)C[C@H]2O[C@]1(C)n1c3ccccc3c3c4c(c5c6ccccc6n2c5c31)C(=O)NC4 [Midostaurin] + CCCCCCCCCCCC1=C(O)C(=O)C=C(O)C1=O [Embelin] (first compound 0.08 µM, partner dose 1.2 µM) | 28.3% | 49.1% | 142% | 154% | 122% | 99% | 74.2% | 43.9% | 82.9% | 149% | 51.9% | 128% | 62.1% | 68.8% | 416% | – |
| C#Cc1cccc(Nc2ncnc3cc(OCCOC)c(OCCOC)cc23)c1 [erlotinib] + Nc1cccc2c1CN(C1CCC(=O)NC1=O)C2=O [lenalidomide] (first compound 0.8 µM, partner dose 1 µM) | 95.2% | 136% | 71.2% | 115% | 43.7% | 101% | – | – | 87.8% | 165% | 72.8% | 106% | 79.4% | 106% | 75.4% | – |
| Cc1ccc(NC(=O)c2cccc(N(C)C)c2)cc1NC(=O)c1ccc(O)cc1 + c1cc(-c2cnn3cc(-c4ccc(OCCN5CCCCC5)cc4)cnc23)ccn1 [Dorsomorphin] (first compound 2 µM, partner dose 0.4 µM) | 61.7% | 111% | 300% | 251% | 110% | 22.5% | 67.6% | 150% | 112% | 106% | 89.2% | 119% | 89.1% | 104% | 61.4% | – |
| CC(=O)c1c(C)c2cnc(Nc3ccc(N4CCNCC4)cn3)nc2n(C2CCCC2)c1=O [palbociclib] + O=S(=O)(c1ccccc1)N(CC(F)(F)F)c1ccc(C(O)(C(F)(F)F)C(F)(F)F)cc1 [T0901317] (first compound 0.04 µM, partner dose 1.4 µM) | – | 52.1% | 149% | 140% | 110% | 52.5% | 105% | 140% | 96.9% | 106% | 107% | 138% | 78.1% | 122% | 177% | 131% |
| CC1(C)NC(=O)N(c2ccc([N+](=O)[O-])c(C(F)(F)F)c2)C1=O [nilutamide] + CO[C@@H]1[C@H](N(C)C(=O)c2ccccc2)C[C@H]2O[C@]1(C)n1c3ccccc3c3c4c(c5c6ccccc6n2c5c31)C(=O)NC4 [Midostaurin] (first compound 1 µM, partner dose 0.08 µM) | – | 104% | 42.9% | 41.6% | 60.9% | 61.8% | 145% | 66.1% | 121% | 53.6% | 41.9% | 748% | 55.1% | 89.8% | 49.7% | 123% |
| COc1cc(Nc2ncc(F)c(Nc3ccc4c(n3)NC(=O)C(C)(C)O4)n2)cc(OC)c1OC [Tamatinib] + COc1ccc(-c2ccc3c(N4CCOCC4)nc(N4C[C@@H](C)O[C@@H](C)C4)nc3n2)cc1CO [KU0063794] (first compound 0.4 µM, partner dose 0.02 µM) | 172% | 137% | 95.2% | 230% | 212% | 114% | 137% | 136% | 48.1% | 200% | 76.8% | 150% | 83.8% | 195% | 143% | – |
| C[C@@H]1CCN(C(=O)CC#N)C[C@@H]1N(C)c1ncnc2[nH]ccc12 + CCc1ccc(CCOc2ccc(CC3SC(=O)NC3=O)cc2)nc1 [pioglitazone] (first compound 1 µM, partner dose 2 µM) | 138% | 49.9% | 111% | 103% | 99.1% | 114% | 68.5% | 93.7% | 108% | 143% | 88.3% | 105% | 142% | 74.2% | 65.3% | – |

As entered above.
Cc1ccc(NC(=O)c2cccc(N(C)C)c2)cc1NC(=O)c1ccc(O)cc1 + c1cc(-c2cnn3cc(-c4ccc(OCCN5CCCCC5)cc4)cnc23)ccn1 [Dorsomorphin] (first compound 2 µM, partner dose 0.4 µM) – cleaved PARP positive nuclei fraction [5]: 110%
Cn1cncc1[C@@](N)(c1ccc(Cl)cc1)c1ccc2c(c1)c(-c1cccc(Cl)c1)cc(=O)n2C [tipifarnib] + Cn1cc(/C=C2\C(=O)Nc3cccnc32)c2ccccc21 [GW441756] (first compound 0.01 µM, partner dose 0.4 µM) – cleaved PARP positive nuclei fraction [5]: 144%
